# In patent US20090209457A1 (Affymax, Inc., priority 2008, published 2009):
# Test system: patients with anti-EPO antibody-mediated PRCA
# Test: Open-label clinical study in patients with anti-EPO antibody-mediated PRCA
# Type: in vivo, human
# Experimental: An open-label, prospective, non-randomized study was conducted to investigate the ability of Peptide I to correct anemia in patients with PRCA that is characterized by anti-EPO antibodies. The pre-specified primary objective was to determine if Peptide I could increase and maintain hemoglobin levels above 11 g/dL (consistent with both U.S.[KDOQI Clinical Practice Guidelines and Clinical Practice Recommendations for Anemia in Chronic Kidney Disease (2006) Am. J. Kidney Dis. 47 (Suppl 3):S11-S145.] and European Guidelines [Locatelli F, et al. (2004) Nephrol. Dial. Transplant 19 (Suppl 2): ii1-47.]) without the need for red cell transfusions in patients with anti-EPO antibody-mediated PRCA during 6 months of treatment. The effect of Peptide I on reducing red cell transfusions, the time required to correct anemia in the absence of transfusions, dose requirements, and safety were also assessed.
# Patients older than 18 years of age were eligible for inclusion if they had CKD (with or without the need for dialysis) and PRCA or red cell hypoplasia due to anti-EPO antibodies. Patients were required to have a documented history of: (1) a decrease in hemoglobin concentration while receiving a stable or increased dose of a protein-based ESA, or red cell transfusion dependency; (2) reticulocyte counts of <30×10^9/L; (3) a bone marrow examination showing severe erythroid hypoplasia or aplasia; and (4) a confirmed positive test for anti-EPO antibodies. Patients may have received immunosuppressive therapy previously, but these medications were to be discontinued for at least three months prior to enrollment. At the time of enrollment, patients had to either be transfusion-dependent, or have a hemoglobin concentration persistently below 11 g/dL without ESA therapy. The presence of another hematological disorder, another known cause of PRCA, and current treatment with ESA or immunosuppressive therapy represented the major exclusion criteria. […]
substance,measurement,setting,value
"PEGylated homodimer of peptide monomers (AcG)GLYACHMGPIT(1-nal)VCQPLR(MeG)K (SEQ ID NO: 2), EPO-R agonist [Peptide I]",anti-EPO antibodies over the course of the study,data not shown,declined over the course of the study in most patients
same,median dose at the time of hemoglobin response,"human, in vivo",0.08 mg/kg per month
same,patients remaining anti-EPO antibody-positive,"human, in vivo",Seven of 10
